The values that follow come from paper PMC8782181.

Amino acid sequences for entries named in this document (tags omitted).
UniProt P53297: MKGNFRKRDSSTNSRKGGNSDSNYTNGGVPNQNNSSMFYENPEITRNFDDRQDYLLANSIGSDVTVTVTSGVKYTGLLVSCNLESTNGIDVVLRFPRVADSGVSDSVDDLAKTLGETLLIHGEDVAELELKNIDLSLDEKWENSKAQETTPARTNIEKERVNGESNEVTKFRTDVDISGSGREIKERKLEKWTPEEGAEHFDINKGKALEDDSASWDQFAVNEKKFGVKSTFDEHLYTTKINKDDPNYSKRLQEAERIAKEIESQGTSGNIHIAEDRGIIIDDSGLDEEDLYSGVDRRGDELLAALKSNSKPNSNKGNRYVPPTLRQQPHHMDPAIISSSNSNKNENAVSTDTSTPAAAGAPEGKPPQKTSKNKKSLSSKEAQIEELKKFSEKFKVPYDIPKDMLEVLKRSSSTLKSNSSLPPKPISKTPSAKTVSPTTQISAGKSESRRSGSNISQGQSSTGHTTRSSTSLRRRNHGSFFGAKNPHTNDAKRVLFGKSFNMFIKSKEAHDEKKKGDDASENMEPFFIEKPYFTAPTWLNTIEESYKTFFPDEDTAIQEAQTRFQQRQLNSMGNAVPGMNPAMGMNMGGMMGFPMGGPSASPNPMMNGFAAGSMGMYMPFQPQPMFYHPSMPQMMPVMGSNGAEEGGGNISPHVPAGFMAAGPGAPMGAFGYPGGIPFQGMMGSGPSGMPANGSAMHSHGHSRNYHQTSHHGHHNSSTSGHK

No constants are given. Whether binding was seen depends on the method and setting. Binding seen in cells or lysates may run through a third protein. Here binding means that the protein was enriched with, or labelled near, the bait; the list need not be complete. For part of these data: Where a sequence is shown, tags or fusion partners need not be part of it.

The target in one assay is T1, Dcp1-myc (S. cerevisiae) (UniProt Q12517).
T1 sequence: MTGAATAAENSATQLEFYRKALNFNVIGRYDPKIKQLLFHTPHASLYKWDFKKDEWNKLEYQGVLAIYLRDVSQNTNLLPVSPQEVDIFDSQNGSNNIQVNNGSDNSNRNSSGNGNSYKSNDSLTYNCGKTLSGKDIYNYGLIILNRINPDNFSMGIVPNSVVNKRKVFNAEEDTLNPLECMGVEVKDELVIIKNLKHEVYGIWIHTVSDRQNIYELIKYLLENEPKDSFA
Nature of the assay: affinity purification with mass spectrometry; cells unstressed or glucose-depleted (10 min for Dcp1-myc, 60 min for Pbp1-myc), cross-linked with 0.8% formaldehyde; 20,000 g pellet of the lysate in Blob100 buffer (20 mM Tris-HCl pH 8, 100 mM NaCl, 1 mM MgCl2, 0.5% NP40) on anti-c-Myc magnetic beads, eluted with Myc peptide; label-free LC-MS/MS; hits are the proteins that cluster (Mfuzz) with the tagged bait across IP, pellet, supernatant, total and unbound fractions.

A further assay deals with Pbp1-myc (S. cerevisiae) (UniProt P53297). The assay is described as above.

B1: Ubp3 (protein, UniProt Q01477 1-912)
chain: MNMQDANKEESYSMYPKTSSPPPPTPTNMQIPIYQAPLQMYGYTQAPYLYPTQIPAYSFNMVNQNQPIYHQSGSPHHLPPQNNINGGSTTNNNNINKKKWHSNGITNNNGSSGNQGANSSGSGMSYNKSHTYHHNYSNNHIPMMASPNSGSNAGMKKQTNSSNGNGSSATSPSYSSYNSSSQYDLYKFDVTKLKNLKENSSNLIQLPLFINTTEAEFAAASVQRYELNMKALNLNSESLENSSVEKSSAHHHTKSHSIPKHNEEVKTETHGEEEDAHDKKPHASKDAHELKKKTEVKKEDAKQDRNEKVIQEPQATVLPVVDKKEPEESVEENTSKTSSPSPSPPAAKSWSAIASDAIKSRQASNKTVSGSMVTKTPISGTTAGVSSTNMAAATIGKSSSPLLSKQPQKKDKKYVPPSTKGIEPLGSIALRMCFDPDFISYVLRNKDVENKIPVHSIIPRGIINRANICFMSSVLQVLLYCKPFIDVINVLSTRNTNSRVGTSSCKLLDACLTMYKQFDKETYEKKFLENADDAEKTTESDAKKSSKSKSFQHCATADAVKPDEFYKTLSTIPKFKDLQWGHQEDAEEFLTHLLDQLHEELISAIDGLTDNEIQNMLQSINDEQLKVFFIRNLSRYGKAEFIKNASPRLKELIEKYGVINDDSTEENGWHEVSGSSKRGKKTKTAAKRTVEIVPSPISKLFGGQFRSVLDIPNNKESQSITLDPFQTIQLDISDAGVNDLETAFKKFSEYELLPFKSSSGNDVEAKKQTFIDKLPQVLLIQFKRFSFINNVNKDNAMTNYNAYNGRIEKIRKKIKYGHELIIPEESMSSITLKNNTSGIDDRRYKLTGVIYHHGVSSDGGHYTADVYHSEHNKWYRIDDVNITELEDDDVLKGGEEASDSRTAYILMYQKRN
On to B1, for which the binding entry with Dcp1-myc (S. cerevisiae) and with Pbp1-myc (S. cerevisiae) was “binds” each time.

B2: Gas5 (protein, UniProt Q08193 20-462)
chain: ASSSNSSTPSIEIKGNAFFNSESGERFYIRGVDYQPGGSSNLTDPLADASVCDRDVPVLKDLGINTVRVYTVDNSQDHSHCMKLLQENGIYLILDVNTPTSAISRYDPACSYNADYLQNVFATIDTFADYDNVLGFFAGNEVINSVNTTNTATYVKAVVRDMKKYIKARKYRQIPVGYSAADIVANRQLAAEYFNCGDEADARIDMFGVNDYSWCGESSFVVSGYSTKMKLYQDYSVPVFLSEFGCNQVKSSRPFTEIEAIYSTQMSSVFSGGLVYEYSNETNNYGLVQIDGDKVTKLTDFENLKNEYSKVSNPEGNGGYSTSNNYSTCPDYEKGVWEANNTLPAMPSAASAYFTSGAGSPMGTGIATQQSCDAKDDDDEEDDDTSSSSSSSSSSSSSASSSSESSSSTSKASSSSPSASETSLLKSAASATSSSQSSSKSKG
On to B2, for which the binding result with Dcp1-myc (S. cerevisiae) and in the assay with Pbp1-myc (S. cerevisiae) was “binds” in each case.

B3: Whi4 (protein, UniProt Q07655 1-649)
chain: MSLVHNQTNLNESKFLIERAFSSSSETVPLSKEATYPMPTAYSFSAVRSNSETNIKRENPQGFAKEPIMTSMLHNLTMSTGKGNGNDVNSLAPHDVDVGPYCLLLRNLPKDITLRECYCIFSLATGVSSIELKRDDREPFNDNEKVVVVKFGSLSLVTHYANILNSKSEIFGPSFPFRSHIDVVNEQTQLPVSFQEHVSSGTTNSSPKNYQLSSSAQNEIQNQSFNTISYGKTSSSPLGPSAAKPRPSLLSERSLRFSFNDPFGLETISQRKESVPFLRNSISQHDLSNVTTTPVPAGMPPQKDAGKSLLLLEKDEINESIWNGDELVNDVGNSSFGASLQEPPMSSTPVMEWNASSTANIPLFQLSSQENHQSNLLPPSHHSISQDVPHIQSQPNLNNSGVIHSATSLPHYHLLNQINASTKTQSIQQSVSNVPSNLDLNLQTENGHPQSSAPNGSSIFNNQKVNQGFLVSEQDTSTISRQKECSSTASASAFSKNNETNVAGSTTISQADLSLLAKVPPPANPADQNPPCNTLYVGNLPPDATEQELRQLFSNQQGFRRLSFRNKMNSHGHGNGHGHGPICFVEFEDVSFATRALAELYGSQLPHPRPSLNNKGGIRLSFSKNPLGVRGSNSRSKSGYSFNGSYGKS
Take B3: the binding result with Dcp1-myc (S. cerevisiae) and with Pbp1-myc (S. cerevisiae) was “binds” throughout.

B4: Yro2 (protein, UniProt P38079 1-344)
chain: MSDYVELLKRGGNEAIKINPPTGADFHITSRGSDWLFTVFCVNLLFGVILVPLMFRKPVKDRFVYYTAIAPNLFMSIAYFTMASNLGWIPVRAKYNHVQTSTQKEHPGYRQIFYARYVGWFLAFPWPIIQMSLLGGTPLWQIAFNVGMTEIFTVCWLIAACVHSTYKWGYYTIGIGAAIVVCISLMTTTFNLVKARGKDVSNVFITFMSVIMFLWLIAYPTCFGITDGGNVLQPDSATIFYGIIDLLILSILPVLFMPLANYLGIERLGLIFDEEPAEHVGPVAEKKMPSPASFKSSDSDSSIKEKLKLKKKHKKDKKKAKKAKKAKKAKKAQEEEEDVATDSE
As for B4, the binding result with Dcp1-myc (S. cerevisiae) and with Pbp1-myc (S. cerevisiae) was “binds” throughout.

B5: Lsm12 (protein, UniProt P38828 1-187)
chain: MSVSLEQTLGFRIKVTNVLDVVTEGRLYSFNSSNNTLTIQTTKKNQSPQNFKVIKCTFIKHLEVIGDKPSFNSFKKQQIKPSYVNVERVEKLLKESVIASKKKELLRGKGVSAEGQFIFDQIFKTIGDTKWVAKDIIILDDVKVQPPYKVEDIKVLHEGSNQSITLIQRIVERSWEQLEQDDGRKGG
Regarding B5, the binding result with Dcp1-myc (S. cerevisiae) and with Pbp1-myc (S. cerevisiae) was “binds” in each case.

B6: Edc3 (protein, UniProt P39998 1-551)
chain: MSQFVGFGVQVELKDGKLIQGKIAKATSKGLTLNDVQFGDGGKSQAFKVRASRLKDLKVLTVASQSGKRKQQRQQQQQNDYNQNRGEHIDWQDDDVSKIKQQEDFDFQRNLGMFNKKDVFAQLKQNDDILPENRLQGHNRKQTQLQQNNYQNDELVIPDAKKDSWNKISSRNEQSTHQSQPQQDAQDDLVLEDDEHEYDVDDIDDPKYLPITQSLNITHLIHSATNSPSINDKTKGTVINDKDQVLAKLGQMIISQSRSNSTSLPAANKQTTIRSKNTKQNIPMATPVQLLEMESITSEFFSINSAGLLENFAVNASFFLKQKLGGRARLRLQNSNPEPLVVILASDSNRSGAKALALGRHLCQTGHIRVITLFTCSQNELQDSMVKKQTDIYKKCGGKIVNSVSSLESAMETLNSPVEIVIDAMQGYDCTLSDLAGTSEVIESRIKSMISWCNKQRGSTKVWSLDIPNGFDAGSGMPDIFFSDRIEATGIICSGWPLIAINNLIANLPSLEDAVLIDIGIPQGAYSQRTSLRKFQNCDLFVTDGSLLLDL
Turning to B6, the binding entry in the assay with Dcp1-myc (S. cerevisiae) and with Pbp1-myc (S. cerevisiae) was “binds” throughout.

B7: Hnm1 (protein, UniProt P19807 1-563)
chain: MSIRNDNASGGYMQPDQSSNASMHKRDLRVEEEIKPLDDMDSKGAVAADGEVHLRKSFSLWSILGVGFGLTNSWFGISTSMVAGISSGGPMMIVYGIIIVALISICIGTSLGELSSAYPHAGGQFWWSLKLAPPKYKRFAAYMCGSFAYAGSVFTSASTTLSVATEVVGMYALTHPEFIPKRWHIFVCFELLHLFLMFFNCYGKSLPIISSSSLYISLLSFFTITITVLACSHGKFNDAKFVFATFNNETGWKNGGIAFIVGLINPAWSFSCLDCATHMAFEVEKPERVIPIAIMGTVAIGFVTSFCYVIAMFFSIQDLDAVLSSTTGAPILDIYNQALGNKSGAIFLGCLILFTSFGCVIACHTWQARLCWSFARDNGLPLSRLWSQVNPHTGVPLNAHLMSCAWITLIGLLYLASSTAFQSLITGCIAFLLLSYIIPVICLLAKKRNIAHGPFWLGKFGFFSNIVLLGWTVFSVVFFSFPPVLPVTKDNMNYVCVVIVGYTAYSILYWKYKGKKEFHALEESENEQAEYSNNFDTIEDSREFSVAASDVELENEHVPWGKK
Turning to B7, the binding entry with Dcp1-myc (S. cerevisiae) and with Pbp1-myc (S. cerevisiae) was “binds” throughout.

B8: Gbp2 (protein, UniProt P25555 1-427)
chain: MERELGMYGNDRSRSRSPVRRRLSDDRDRYDDYNDSSSNNGNGSRRQRRDRGSRFNDRYDQSYGGSRYHDDRNWPPRRGGRGRGGSRSFRGGRGGGRGRTLGPIVERDLERQFDATKRNFENSIFVRNLTFDCTPEDLKELFGTVGEVVEADIITSKGHHRGMGTVEFTKNESVQDAISKFDGALFMDRKLMVRQDNPPPEAAKEFSKKATREEIDNGFEVFIINLPYSMNWQSLKDMFKECGHVLRADVELDFNGFSRGFGSVIYPTEDEMIRAIDTFNGMEVEGRVLEVREGRFNKRKNNDRYNQRREDLEDTRGTEPGLAQDAAVHIDETAAKFTEGVNPGGDRNCFIYCSNLPFSTARSDLFDLFGPIGKINNAELKPQENGQPTGVAVVEYENLVDADFCIQKLNNYNYGGCSLQISYARRD
As for B8, the binding result with Dcp1-myc (S. cerevisiae) and in the assay with Pbp1-myc (S. cerevisiae) was “binds” throughout.

B9: Mkt1 (protein, UniProt P40850 1-830)
chain: MAIKSLESFLFERGLVGSYAIEALNNCTLDIDVNHYVSRLLTNKREQYLDAIGGFPTSLKMYLESDLKIFKDFNITPIFVFNGGLTYNQLEASGHFTAASASASISSTTTSSSGTNATTRSNTESVLLQRSRGWTQWNNLISSNQNSYIDQPIQPQEPFRHNTTIDSKAYQNDLIAYFIEHGYMYQVAPYSSWFQLAYLLNSAYIDAIYGPTDCLMLDCVDRFILGMEFPNKEFRFIDRSRVMKDLGCTHEEFIDIAMAVGNDLQPTTLPPLQIYPVPQLFDIALEMVLNTGTNFYAYQLSTTLQNDSKENIQNYQRGISALRYMPVLKDTGKVELFVQEIVVSEEDSEKNNKDGKKSNLSSPSSASSSASPATTVTKNASEKLTYEKSSTKEVRKPRDIPNDVHDFIGQMLPHEYYFYRSIGLVTGKLFDAIVTGVYPEEPPLGGGSSTSYKKLVSKSVEIFKNKEINLLTQPINRYYQIKQIKQVKWYAANEPTTLTNRMSPSMFETINHLIVKTETSDEKEFSISEFITTINGSSNMAKDFISEKVIFPNSVPIESKLNSPFNLLSTNFLRLLVLLEFFTFDFKEKLLEPTRWGEVFLKLNELNIDSKYHESVIIFLVFLKCDVLKLDEEVQPPAPSALSQATLRSYPEESLYVLLITRVLTLFQVDQKPSNYHGPIDKKTLIFRDHLSFIKENLNELFEAVLISSLTSGEFNRLSLDNFGWARKIVRYLPFKLDSPNTIMAMMWEFFLQKYLHNGNAKNDALSLVATEFNTYKSTPNLDEQFVESHRFLLEISKVMQELNAAKLIDENVFKLFTKAVEFTTTALSS
In the case of B9, the binding result with Dcp1-myc (S. cerevisiae) and in the assay with Pbp1-myc (S. cerevisiae) was “binds” in each case.
